Source: US20250195477A1, “DEUTERATED IDAZOXAN AND METHODS OF USE THEREOF” (Terran Biosciences Inc., priority 2022, published 2025)

Assay: Metabolic stability in human liver microsomes
Assay type: in vitro ADME
Conditions: pH 7.4; pooled human liver microsomes 0.5 mg/mL, test compound 3 μM, NADPH, 0, 5, 15, 30, 45 min, LC-MS/MS; read-out: CLint (μL/min/mg protein)

| Structure (SMILES) | microsomal CLint at 3 μM [µL/min/mg] |
| --- | --- |
| CN1C(=O)CN=C(c2ccccc2)c2cc(Cl)ccc21 [Diazepam, reference compound] | 89.4 |
| CN(C)CCOC(c1ccccc1)c1ccccc1 [Diphenhydramine, reference compound] | 690 |
